Results are given in words; binding and its absence hold for the method and conditions named. Some entries that bind do so weakly or less than the wild type.
Experiments:
[1] = target: crossbeta E2 form cE2-A (Classical Swine Fever Virus) (UniProt P21530); assay: ELISA, coated E2 form, Fn F4-5 concentration series, anti-FLAG detection
[2] = target: crossbeta E2 form cE2-B (Classical Swine Fever Virus) (UniProt P21530); assay: as above

Sequences of proteins named here, by UniProt entry; tags and fusion partners are left off. Residues count along the entry.
UniProt P21530, residues 690-1030: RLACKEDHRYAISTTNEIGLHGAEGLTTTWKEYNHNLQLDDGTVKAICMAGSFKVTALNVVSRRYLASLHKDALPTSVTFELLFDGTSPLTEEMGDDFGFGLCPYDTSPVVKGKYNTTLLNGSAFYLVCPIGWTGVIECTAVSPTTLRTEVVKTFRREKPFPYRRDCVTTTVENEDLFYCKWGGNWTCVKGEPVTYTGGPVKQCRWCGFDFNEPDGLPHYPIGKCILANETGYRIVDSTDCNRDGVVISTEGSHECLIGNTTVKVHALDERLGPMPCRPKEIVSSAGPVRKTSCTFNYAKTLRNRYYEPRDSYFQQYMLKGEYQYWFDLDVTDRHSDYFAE
UniProt P02751, residues 184-273: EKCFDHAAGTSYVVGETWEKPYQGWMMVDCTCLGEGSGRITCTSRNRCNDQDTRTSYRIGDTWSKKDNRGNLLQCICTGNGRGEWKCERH

For “fourth and fifth finger domain of fibronectin (Fn F4-5) with C-terminal FLAG-tag (from UniProt P02751 184-273)”, the binding [1] was “binds” and the binding [2] was “binds”.
